Assay results reported in patent US8563236B2, “Mutational profiles in HIV-1 reverse transcriptase correlated with phenotypic drug resistance” (priority 1999, dated 2013).
At least one compound was matched to its structure with a doubt left.

Tested on: HXB2-D virus with T69A or V75M in a background of AZT mutations
Assay: MT-4 cell CPE protection assay, site-directed mutant viruses
Format: cell-based, HIV-1
Procedure: MT-4 cells (Harada S., et al, Science 229: 563-566 (1985).) were co-transfected with pol gene PCR fragments and the protease-RT deleted HIV-1 molecular clone, pGEM3ΔPRT, as described. See Hertogs K., et al., Antimicrob. Agents Chemother. 42: 269-276 (1998). […] Phenotypic susceptibility to nucleoside analogues was determined using an MT-4 cell viral cytopathic effect (CPE) protection assay as described. Id. Fold resistance values were derived by dividing the mean IC50 for a patient's recombinant virus by the mean IC50 for wild-type control virus (strain HXB2-D).
Mutations in the RT coding region were created by site-directed mutagenesis of a wild-type HXB2-D EcoRI-PstI restriction enzyme fragment, encompassing the HIV-1 pol gene and cloned into pGEM3 (Promega). Single and multiple nucleotide changes were introduced into RT using the ExSite mutagenesis kit (Strategene). All mutant clones were verified by DNA sequence analysis of the entire RT. PCR fragments were prepared from the mutated clones and the altered RT coding regions were transferred into the HIV-1 HXB2-D genetic background by homologous recombination as described above. The susceptibility of these recombinant viruses to nucleoside analogues was subsequently determined by the MT-4 cell CPE protection assay. Id. […]

Structure (SMILES): Nc1ccn([C@@H]2CS[C@H](CO)O2)c(=O)n1 [3TC, lamivudine]
- resistance conferred: little or no resistance
